# Results: PMC5732694
# Chains of the proteins cited; added tags and fusions are not shown.
# UniProt Q13216: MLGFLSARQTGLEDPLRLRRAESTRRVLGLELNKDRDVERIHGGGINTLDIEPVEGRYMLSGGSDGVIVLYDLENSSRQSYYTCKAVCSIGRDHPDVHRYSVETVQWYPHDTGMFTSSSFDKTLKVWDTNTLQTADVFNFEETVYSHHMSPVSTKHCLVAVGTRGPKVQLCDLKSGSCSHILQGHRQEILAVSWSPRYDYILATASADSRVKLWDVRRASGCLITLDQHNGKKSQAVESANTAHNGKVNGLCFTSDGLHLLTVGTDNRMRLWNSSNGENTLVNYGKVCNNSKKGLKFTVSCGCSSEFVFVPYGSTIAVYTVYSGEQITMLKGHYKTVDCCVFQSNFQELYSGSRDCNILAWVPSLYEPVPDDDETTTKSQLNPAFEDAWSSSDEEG
# UniProt O00429: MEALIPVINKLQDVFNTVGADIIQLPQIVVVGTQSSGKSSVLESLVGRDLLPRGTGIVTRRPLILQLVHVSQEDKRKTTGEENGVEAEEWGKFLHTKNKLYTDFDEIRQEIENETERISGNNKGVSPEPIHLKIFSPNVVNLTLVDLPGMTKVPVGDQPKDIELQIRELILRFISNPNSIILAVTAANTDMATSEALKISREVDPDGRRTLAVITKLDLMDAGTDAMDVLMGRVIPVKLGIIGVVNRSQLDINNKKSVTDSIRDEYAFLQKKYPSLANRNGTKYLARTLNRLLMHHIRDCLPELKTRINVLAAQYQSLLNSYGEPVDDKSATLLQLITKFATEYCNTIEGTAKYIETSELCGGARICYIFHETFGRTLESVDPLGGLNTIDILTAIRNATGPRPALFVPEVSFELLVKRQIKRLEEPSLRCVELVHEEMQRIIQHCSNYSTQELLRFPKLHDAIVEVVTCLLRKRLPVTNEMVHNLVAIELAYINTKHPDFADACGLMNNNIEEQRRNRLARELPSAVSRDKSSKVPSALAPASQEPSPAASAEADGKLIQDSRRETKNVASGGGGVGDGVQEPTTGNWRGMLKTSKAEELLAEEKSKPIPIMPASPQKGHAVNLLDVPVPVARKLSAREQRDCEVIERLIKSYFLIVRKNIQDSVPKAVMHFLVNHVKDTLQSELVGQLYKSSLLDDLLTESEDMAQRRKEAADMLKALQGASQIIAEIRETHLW
# These are yes or no findings as the source states them, for the method shown. Binding seen in cells or lysates may run through a third protein. Some results given as binding are weak or reduced against the parent protein; the word gives no strength.
# Legend:
# [1] = biological target: wild-type CSA protein tagged at the C-terminus with the Flag and HA epitopes (UniProt Q13216); experiment: co-IP; tandem affinity purification (TAP): total extracts of 2x10^8 CS3BE-wtCSA cells, anti-Flag M2 affinity gel o.n. 4°C, elution with Flag peptide in TBS, then anti-HA agarose o.n. 4°C, washes with 1X IP low buffer, immunoblotting; cells in basal condition and after 20 µM CCCP; parental CS3BE cells as control
# [2] = biological target: dynamin-related protein DRP1 (human (endogenous in CS3BE-wtCSA)) (UniProt O00429); experiment: co-IP; total extracts of 2x10^7 cells immunoprecipitated with anti-Drp1 antibody (5 µg, o.n. 4°C) and protein A/G agarose beads, washes with 1X IP high buffer, immunoblotting; CS3BE and CS3BE-wtCSA cells
binding [1],binding [2],Substance
binds,–,dynamin-related protein DRP1 (from UniProt O00429 1-736)
–,binds,wild-type CSA protein tagged at the C-terminus with the Flag and HA epitopes (from UniProt Q13216 1-396)
